Assay results taken from US7704961B2, “Avermectins and avermectin monosacharides substituted in the 4′-and 4″ position having pesticidal properties” (Merial Limited, priority 2003, dated 2010).
Some of these results come from one statement about several compounds together. For some of these results: For at least one compound, name, drawing or mass did not settle the structure.

Tests used:
Format in all cases: in vivo
Diabrotica balteata = assay: Activity against Diabrotica balteata (Example B6, sprayed maize seedlings); settings: 12.5 ppm of active compound, spray on maize seedlings, larvae of the second stage, after 6 days
Spodoptera littoralis [1] = assay: Activity against Spodoptera littoralis, systemic (Example B2, maize seedlings in test solution); settings: 12.5 ppm of active compound in test solution, maize seedlings 6 days, cut leaves populated with larvae, 4 days later
Spodoptera littoralis [2] = assay: Activity against Spodoptera littoralis (Example B1, sprayed soya bean plants); settings: 12.5 ppm of active compound, spray on young soya bean plants, caterpillars of the first stage, 3 days later
Heliothis virescens = assay: Activity against Heliothis virescens (Example B3, eggs on filter paper); settings: 12.5 ppm of active compound, 0.8 ml on filter paper with 0- to 24-hour-old eggs, after 6 days
Plutella xylostella = assay: Activity against Plutella xylostella caterpillars (Example B4, sprayed cabbage plants); settings: 12.5 ppm of active compound, spray on young cabbage plants, caterpillars of the first stage, after 3 days
[3] = test system: Frankliniella occidentalis; assay: Activity against Frankliniella occidentalis (Example B5, sprayed bean leaf discs); settings: 12.5 ppm of active compound, sprayed bean leaf discs on agar, mixed population, after 10 days

Row | SMILES | reduction in the pest population (Diabrotica balteata) | reduction in the pest population (Spodoptera littoralis [1]) | reduction in the pest population (Spodoptera littoralis [2]) | reduction in the pest population (Heliothis virescens) | reduction in the pest population (Plutella xylostella) | reduction in the pest population [3]
1 | CCC(C)C1OC2(C=CC1C)CC1CC(CC=C(C)C(OC3CC(OC)C(OC4CC(OC)C(OC(=O)NCC(O)CO)C(C)O4)C(C)O3)C(C)C=CC=C3COC4C(O)C(C)=CC(C(=O)O1)C34O)O2 (stereo not shown) [Compound 1.22] | more than 80% | more than 80% | more than 80% | – | – | –
2 | CCC(C)C1OC2(C=CC1C)CC1CC(CC=C(C)C(OC3CC(OC)C(OC4CC(OC)C(OC(=O)NCCNC)C(C)O4)C(C)O3)C(C)C=CC=C3COC4C(O)C(C)=CC(C(=O)O1)C34O)O2 (stereo not shown) [Compound 1.41] | – | more than 80% | more than 80% | – | – | –
3 | CCC(C)C1OC2(C=CC1C)CC1CC(CC=C(C)C(OC3CC(OC)C(OC4CC(OC)C(OC(=O)NNC)C(C)O4)C(C)O3)C(C)C=CC=C3COC4C(O)C(C)=CC(C(=O)O1)C34O)O2 (stereo not shown) [Compound 1.46] | – | more than 80% | more than 80% | – | – | –
4 | CCC(C)C1OC2(C=CC1C)CC1CC(CC=C(C)C(OC3CC(OC)C(OC(=O)NCCOC)C(C)O3)C(C)C=CC=C3COC4C(O)C(C)=CC(C(=O)O1)C34O)O2 (stereo not shown) [Compound 3.10] | – | – | more than 80% | more than 80% | – | –
5 | CCC(C)C1OC2(C=CC1C)CC1CC(CC=C(C)C(OC3CC(OC)C(OC(=O)NC4CC4)C(C)O3)C(C)C=CC=C3COC4C(O)C(C)=CC(C(=O)O1)C34O)O2 (stereo not shown) [Compound 3.17] | – | – | more than 80% | more than 80% | – | –
6 | CCC(C)C1OC2(C=CC1C)CC1CC(CC=C(C)C(OC3CC(OC)C(OC4CC(OC)C(OC(=S)NN(C)C)C(C)O4)C(C)O3)C(C)C=CC=C3COC4C(O)C(C)=CC(C(=O)O1)C34O)O2 (stereo not shown) [Compound 5.105] | – | more than 80% | more than 80% | – | – | –
7 | CCC(C)C1OC2(C=CC1C)CC1CC(CC=C(C)C(OC3CC(OC)C(OC(=O)OC)C(C)O3)C(C)C=CC=C3COC4C(O)C(C)=CC(C(=O)O1)C34O)O2 (stereo not shown) [Compound 8.4] | – | more than 80% | – | – | – | –
8 | CCC(C)C1OC2(C=CC1C)CC1CC(CC=C(C)C(OC3CC(OC)C(OC(=S)OC)C(C)O3)C(C)C=CC=C3COC4C(O)C(C)=CC(C(=O)O1)C34O)O2 (stereo not shown) [Compound 9.4] | – | more than 80% | more than 80% | more than 80% | more than 80% | more than 80%
